The values below come from patent US20260015360A1 (MOMA Therapeutics, Inc., priority 2023, published 2026).

Chains of the proteins cited; added tags and fusions are not shown. Residues count along the entry.
UniProt O75417, 2-894 limits assumed: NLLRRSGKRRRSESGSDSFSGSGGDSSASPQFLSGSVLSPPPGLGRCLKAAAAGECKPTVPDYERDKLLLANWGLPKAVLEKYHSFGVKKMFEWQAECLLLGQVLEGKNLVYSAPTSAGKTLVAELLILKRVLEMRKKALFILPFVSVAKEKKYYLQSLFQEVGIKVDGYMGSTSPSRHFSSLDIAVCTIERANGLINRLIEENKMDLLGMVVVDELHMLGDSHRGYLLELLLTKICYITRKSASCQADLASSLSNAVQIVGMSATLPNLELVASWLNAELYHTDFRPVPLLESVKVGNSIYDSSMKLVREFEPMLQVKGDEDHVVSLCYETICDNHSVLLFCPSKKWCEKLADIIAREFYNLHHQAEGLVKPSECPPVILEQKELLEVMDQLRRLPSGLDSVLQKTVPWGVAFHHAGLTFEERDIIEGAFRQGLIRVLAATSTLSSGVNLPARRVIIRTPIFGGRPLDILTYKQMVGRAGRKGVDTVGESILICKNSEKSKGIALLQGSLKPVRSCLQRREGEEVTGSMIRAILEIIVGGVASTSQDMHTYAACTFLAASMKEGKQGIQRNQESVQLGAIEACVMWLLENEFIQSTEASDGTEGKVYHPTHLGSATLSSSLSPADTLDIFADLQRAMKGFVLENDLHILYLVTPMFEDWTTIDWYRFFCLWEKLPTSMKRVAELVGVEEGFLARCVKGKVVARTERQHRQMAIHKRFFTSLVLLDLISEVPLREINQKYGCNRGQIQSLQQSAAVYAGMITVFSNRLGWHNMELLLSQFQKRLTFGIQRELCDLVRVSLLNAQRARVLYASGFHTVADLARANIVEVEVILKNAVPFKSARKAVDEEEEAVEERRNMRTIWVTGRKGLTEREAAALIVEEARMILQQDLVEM

The structures given here were assigned with low confidence; some may be wrong.

In assay [1] the target is biotinylated Avi-POLΘ[2-894] (Homo sapiens, UniProt O75417). In words: ATPase assay (ADP-Glo): POLΘ-mediated ATP hydrolysis. The settings on record: read-out: Biochemical ATPase ADPGlo IC50.
Assay [2] relates to DLD1 WT cells. In words: DLD1 viability assay (CellTiter-Glo, 7 days), DLD1 WT. It counts as cell-based. The settings on record: read-out: Viability IC50 (μM) DLD1 WT.
Assay [3] deals with DLD1 BRCA2 (−/−) cells. The experiment in a line: DLD1 viability assay (CellTiter-Glo, 7 days), DLD1 BRCA2 (−/−). In kind it is cell-based. To be noted: read-out: Viability IC50 (μM) DLD1 BRCA2 null.

On to `COc1cc2c(cc1-c1cc(C)ncc1C(=O)Nc1nc3ncc(-c4ccncc4)nc3s1)CCNC2=O`, for which the figures for the IC50 in assay [1], in assay [2] and in assay [3] were 0.001 to 0.015 µM, > 10 µM and 0.5 to 2 µM, respectively.

For the molecule `Cc1cc(N2CCN(CC3CC3)C(=O)C2)c(C(=O)Nc2nc3ncc(-c4ccncc4)cc3s2)cn1`, in assay [1], the IC50 is 0.15 to 0.9 µM.

On to `COc1ccc(C#N)cc1-c1cc(C)ncc1C(=O)Nc1nc2ncc(C(=O)N(C)C)nc2s1`, for which the IC50 in assay [1] was 0.001 to 0.015 µM; in assay [2] it was > 10 µM; in assay [3], > 2 µM.

As to `COc1ccccc1-c1cc(C)ncc1C(=O)Nc1nc2ccc(Cl)nc2s1`, the IC50 in assay [1] fell in the range of 0.15 to 0.9 µM.

`COc1cnc(Cl)cc1-c1cc(C)ncc1C(=O)Nc1nc2ncc(-c3ccc(Cl)cc3)nc2s1`: the half-inhibitory concentration (IC50) was 0.001 to 0.015 µM in assay [1], > 10 µM in assay [2] and 0.001 to 0.1 µM in assay [3].
